The data set deals with papain. Briefly: Protease treatment: digestion with papain, followed by HPLC. It counts as biochemical. The following applies: activated papain, enzyme/substrate ratio 1:50, phosphate buffer pH 6.5; main product Z-Ala-OH / Z-Gly-OH.

In patent EP0506748B1, “AMINO ACIDS, PEPTIDES OR DERIVATIVES THEREOF COUPLED TO FATS” (COMMONWEALTH SCIENTIFIC AND INDUSTRIAL RESEARCH ORGANISATION, priority 1989, dated 1991) one finds hydrolysis by papain data, which are given here for two molecules.

As for `O=C(CNC(=O)OCc1ccccc1)NC(CO)(CO)CO` [Z-Gly-TRIS], the hydrolysis by papain result is on record as “very slowly”. With `CC(NC(=O)OCc1ccccc1)C(=O)NC(CO)(CO)CO` (centres unmarked) [Z-Ala-TRIS], the hydrolysis by papain entry is given as “very slowly”.
